Source: the supplement of paper PMC10849652
The other results are listed elsewhere or left out.

Sequences of proteins named here, by UniProt entry; tags and fusion partners are left off. A change or cut given only in a name is not applied to a line headed by its entry.
UniProt O95926: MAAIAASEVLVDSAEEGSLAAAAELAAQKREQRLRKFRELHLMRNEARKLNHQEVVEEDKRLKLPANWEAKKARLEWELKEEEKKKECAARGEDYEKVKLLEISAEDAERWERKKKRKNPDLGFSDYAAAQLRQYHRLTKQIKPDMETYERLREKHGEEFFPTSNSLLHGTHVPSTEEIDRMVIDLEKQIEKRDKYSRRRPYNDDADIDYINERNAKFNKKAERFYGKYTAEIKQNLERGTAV
UniProt Q9H169: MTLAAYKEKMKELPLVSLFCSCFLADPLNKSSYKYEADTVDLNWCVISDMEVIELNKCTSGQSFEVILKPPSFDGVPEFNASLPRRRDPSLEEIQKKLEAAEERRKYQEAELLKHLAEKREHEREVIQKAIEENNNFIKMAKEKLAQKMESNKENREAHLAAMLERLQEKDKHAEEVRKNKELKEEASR
UniProt Q9NYJ8: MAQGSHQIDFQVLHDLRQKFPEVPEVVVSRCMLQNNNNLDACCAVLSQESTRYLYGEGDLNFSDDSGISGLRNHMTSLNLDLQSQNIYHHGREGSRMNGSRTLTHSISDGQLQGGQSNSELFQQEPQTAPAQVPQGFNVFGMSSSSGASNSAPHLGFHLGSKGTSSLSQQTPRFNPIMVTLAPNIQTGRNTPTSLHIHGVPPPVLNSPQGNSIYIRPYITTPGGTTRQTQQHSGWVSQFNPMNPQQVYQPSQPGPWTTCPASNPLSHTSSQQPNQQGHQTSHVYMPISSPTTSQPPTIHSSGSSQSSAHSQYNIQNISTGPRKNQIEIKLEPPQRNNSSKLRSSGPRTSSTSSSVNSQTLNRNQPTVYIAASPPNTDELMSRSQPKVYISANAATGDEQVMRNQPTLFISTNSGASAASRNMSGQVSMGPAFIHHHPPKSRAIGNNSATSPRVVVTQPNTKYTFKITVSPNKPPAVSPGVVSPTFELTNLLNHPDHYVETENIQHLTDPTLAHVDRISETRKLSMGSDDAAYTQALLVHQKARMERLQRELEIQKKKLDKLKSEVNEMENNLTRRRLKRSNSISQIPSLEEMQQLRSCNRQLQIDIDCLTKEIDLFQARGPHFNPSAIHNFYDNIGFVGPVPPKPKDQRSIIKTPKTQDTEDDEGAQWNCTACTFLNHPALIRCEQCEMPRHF
UniProt Q8IX01: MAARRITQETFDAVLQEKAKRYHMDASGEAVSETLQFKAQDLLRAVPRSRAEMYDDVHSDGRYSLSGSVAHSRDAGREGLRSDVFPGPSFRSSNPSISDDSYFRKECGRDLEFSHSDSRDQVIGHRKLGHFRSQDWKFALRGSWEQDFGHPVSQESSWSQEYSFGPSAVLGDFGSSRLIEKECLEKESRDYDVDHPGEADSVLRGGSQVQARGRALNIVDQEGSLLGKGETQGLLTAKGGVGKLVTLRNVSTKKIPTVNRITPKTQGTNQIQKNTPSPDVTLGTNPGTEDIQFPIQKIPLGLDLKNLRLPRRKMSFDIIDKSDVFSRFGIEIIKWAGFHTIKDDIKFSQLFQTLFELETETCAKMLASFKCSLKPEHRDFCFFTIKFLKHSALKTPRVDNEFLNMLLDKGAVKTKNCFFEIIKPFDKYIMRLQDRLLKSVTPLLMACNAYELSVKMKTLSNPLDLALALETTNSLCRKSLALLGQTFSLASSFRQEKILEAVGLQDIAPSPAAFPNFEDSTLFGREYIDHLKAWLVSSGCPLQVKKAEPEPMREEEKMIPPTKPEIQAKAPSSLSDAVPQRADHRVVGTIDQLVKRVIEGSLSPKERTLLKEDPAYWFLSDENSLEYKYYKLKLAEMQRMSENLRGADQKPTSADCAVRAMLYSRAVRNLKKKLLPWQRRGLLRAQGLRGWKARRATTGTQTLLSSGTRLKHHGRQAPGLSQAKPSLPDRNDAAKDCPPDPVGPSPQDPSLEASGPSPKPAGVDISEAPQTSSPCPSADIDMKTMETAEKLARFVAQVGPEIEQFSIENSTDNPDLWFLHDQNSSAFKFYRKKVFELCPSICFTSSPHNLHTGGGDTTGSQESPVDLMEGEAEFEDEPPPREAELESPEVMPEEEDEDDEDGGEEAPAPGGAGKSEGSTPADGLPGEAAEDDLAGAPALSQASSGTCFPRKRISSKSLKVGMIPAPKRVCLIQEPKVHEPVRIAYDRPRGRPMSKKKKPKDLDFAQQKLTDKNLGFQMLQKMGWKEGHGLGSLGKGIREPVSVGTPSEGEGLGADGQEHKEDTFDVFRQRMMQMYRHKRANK
UniProt Q13277: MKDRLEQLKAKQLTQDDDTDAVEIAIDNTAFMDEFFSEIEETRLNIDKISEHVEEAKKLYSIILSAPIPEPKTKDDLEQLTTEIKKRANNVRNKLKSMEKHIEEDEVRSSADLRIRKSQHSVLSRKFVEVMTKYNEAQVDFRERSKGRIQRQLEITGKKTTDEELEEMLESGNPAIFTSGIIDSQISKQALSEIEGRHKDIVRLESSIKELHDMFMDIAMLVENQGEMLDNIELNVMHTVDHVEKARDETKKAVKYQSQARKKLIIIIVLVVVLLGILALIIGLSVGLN
UniProt Q5T5C0: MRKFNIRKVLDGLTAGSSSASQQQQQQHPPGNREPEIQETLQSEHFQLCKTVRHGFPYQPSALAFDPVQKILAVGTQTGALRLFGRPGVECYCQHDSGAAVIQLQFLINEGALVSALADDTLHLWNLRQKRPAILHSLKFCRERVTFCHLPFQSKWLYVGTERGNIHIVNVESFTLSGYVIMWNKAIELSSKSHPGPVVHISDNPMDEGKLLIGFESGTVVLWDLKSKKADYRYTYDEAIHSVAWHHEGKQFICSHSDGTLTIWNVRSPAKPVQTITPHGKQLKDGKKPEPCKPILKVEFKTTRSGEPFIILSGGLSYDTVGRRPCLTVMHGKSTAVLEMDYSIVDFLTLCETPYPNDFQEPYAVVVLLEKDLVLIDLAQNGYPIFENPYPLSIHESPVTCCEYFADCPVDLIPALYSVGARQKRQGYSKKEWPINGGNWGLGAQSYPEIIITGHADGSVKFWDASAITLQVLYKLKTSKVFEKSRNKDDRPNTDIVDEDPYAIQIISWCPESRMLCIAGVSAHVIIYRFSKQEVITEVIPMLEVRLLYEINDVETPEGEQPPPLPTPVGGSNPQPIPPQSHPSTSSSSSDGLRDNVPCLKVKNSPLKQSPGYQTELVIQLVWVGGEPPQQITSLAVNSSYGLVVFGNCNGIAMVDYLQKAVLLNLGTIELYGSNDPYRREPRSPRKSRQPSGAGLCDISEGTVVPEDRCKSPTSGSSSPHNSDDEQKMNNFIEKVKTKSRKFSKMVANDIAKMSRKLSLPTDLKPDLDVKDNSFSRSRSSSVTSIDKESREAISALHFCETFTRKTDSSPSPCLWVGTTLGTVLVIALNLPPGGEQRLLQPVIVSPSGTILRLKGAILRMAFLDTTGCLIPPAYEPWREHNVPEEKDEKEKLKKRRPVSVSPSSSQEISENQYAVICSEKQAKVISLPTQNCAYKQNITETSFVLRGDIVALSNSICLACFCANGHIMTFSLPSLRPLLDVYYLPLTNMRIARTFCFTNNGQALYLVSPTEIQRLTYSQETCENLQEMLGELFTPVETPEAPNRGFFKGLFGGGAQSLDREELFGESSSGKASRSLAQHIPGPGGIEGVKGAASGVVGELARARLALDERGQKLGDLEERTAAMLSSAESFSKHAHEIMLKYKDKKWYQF
UniProt Q15526: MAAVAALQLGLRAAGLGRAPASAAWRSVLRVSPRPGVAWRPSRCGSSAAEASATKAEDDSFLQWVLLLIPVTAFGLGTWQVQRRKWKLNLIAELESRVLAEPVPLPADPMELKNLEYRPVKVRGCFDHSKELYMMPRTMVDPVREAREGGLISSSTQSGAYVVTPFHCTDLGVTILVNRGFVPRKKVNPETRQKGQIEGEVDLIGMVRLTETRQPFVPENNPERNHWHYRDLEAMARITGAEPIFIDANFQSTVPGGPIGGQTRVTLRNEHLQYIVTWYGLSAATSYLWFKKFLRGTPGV
UniProt Q9UMZ2: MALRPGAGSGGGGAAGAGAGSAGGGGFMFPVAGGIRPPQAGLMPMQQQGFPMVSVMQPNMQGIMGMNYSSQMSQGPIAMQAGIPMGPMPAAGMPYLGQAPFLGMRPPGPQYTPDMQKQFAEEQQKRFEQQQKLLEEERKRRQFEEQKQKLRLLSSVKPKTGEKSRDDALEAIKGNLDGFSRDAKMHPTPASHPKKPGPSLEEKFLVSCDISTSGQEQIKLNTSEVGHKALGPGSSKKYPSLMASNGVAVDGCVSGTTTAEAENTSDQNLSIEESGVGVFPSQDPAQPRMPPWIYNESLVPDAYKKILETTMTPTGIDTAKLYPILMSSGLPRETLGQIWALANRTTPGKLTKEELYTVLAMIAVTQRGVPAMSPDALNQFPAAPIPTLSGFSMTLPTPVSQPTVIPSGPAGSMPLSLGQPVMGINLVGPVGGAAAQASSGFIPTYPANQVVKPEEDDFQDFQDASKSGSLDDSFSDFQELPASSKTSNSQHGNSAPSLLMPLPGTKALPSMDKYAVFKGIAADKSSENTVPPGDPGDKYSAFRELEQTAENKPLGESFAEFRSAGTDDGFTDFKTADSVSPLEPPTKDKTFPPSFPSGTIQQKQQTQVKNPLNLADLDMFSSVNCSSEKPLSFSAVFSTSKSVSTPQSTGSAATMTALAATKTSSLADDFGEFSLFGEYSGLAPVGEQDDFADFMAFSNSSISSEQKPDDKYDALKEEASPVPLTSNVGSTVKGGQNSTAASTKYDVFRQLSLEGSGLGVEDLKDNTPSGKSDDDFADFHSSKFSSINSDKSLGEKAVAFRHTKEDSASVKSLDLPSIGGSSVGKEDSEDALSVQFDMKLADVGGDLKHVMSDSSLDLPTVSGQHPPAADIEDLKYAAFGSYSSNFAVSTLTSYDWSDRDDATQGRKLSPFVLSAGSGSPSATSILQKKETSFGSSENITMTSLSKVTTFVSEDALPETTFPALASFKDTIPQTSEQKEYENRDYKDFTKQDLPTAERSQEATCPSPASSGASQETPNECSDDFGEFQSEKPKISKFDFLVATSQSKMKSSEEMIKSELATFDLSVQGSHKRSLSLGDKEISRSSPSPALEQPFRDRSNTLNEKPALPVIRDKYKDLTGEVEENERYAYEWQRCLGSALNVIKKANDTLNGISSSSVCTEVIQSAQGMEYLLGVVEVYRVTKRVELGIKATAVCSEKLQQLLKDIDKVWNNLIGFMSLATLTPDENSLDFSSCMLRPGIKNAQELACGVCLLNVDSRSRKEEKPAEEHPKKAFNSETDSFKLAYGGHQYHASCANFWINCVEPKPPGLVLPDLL
UniProt B4DR80: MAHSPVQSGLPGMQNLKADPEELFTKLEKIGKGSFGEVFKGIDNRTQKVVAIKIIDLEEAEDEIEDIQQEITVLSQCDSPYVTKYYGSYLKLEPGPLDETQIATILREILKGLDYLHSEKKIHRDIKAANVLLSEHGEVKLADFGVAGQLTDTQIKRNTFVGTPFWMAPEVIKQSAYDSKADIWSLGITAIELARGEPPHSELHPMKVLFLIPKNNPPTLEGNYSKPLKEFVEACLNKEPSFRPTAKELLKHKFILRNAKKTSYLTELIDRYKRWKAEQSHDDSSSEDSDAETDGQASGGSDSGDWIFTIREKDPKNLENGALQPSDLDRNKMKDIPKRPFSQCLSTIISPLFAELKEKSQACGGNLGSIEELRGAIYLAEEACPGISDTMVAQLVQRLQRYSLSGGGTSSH
UniProt Q93045: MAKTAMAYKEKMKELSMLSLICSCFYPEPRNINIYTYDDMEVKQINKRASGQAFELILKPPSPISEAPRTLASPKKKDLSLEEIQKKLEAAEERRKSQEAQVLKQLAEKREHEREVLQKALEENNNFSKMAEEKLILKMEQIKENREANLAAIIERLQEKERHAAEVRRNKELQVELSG
UniProt Q7Z422: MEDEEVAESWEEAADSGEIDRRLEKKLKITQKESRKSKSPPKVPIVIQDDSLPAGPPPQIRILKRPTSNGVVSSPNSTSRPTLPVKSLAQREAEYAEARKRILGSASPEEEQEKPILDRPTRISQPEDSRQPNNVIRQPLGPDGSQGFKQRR
UniProt P51687: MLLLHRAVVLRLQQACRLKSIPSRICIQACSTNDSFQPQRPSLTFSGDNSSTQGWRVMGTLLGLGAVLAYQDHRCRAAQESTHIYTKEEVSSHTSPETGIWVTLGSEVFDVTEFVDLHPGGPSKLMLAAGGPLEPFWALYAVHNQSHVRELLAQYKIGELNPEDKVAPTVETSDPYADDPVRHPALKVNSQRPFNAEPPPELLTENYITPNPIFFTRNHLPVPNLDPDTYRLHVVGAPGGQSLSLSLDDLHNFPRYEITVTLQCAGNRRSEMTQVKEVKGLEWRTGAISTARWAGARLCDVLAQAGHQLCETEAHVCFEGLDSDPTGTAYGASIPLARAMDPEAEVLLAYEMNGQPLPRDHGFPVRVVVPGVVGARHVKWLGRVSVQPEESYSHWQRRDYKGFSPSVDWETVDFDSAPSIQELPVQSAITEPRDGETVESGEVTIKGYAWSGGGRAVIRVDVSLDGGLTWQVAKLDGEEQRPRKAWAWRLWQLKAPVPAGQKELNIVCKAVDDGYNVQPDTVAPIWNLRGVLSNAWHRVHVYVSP

How the values were obtained:
Experiment in all cases: log2 fold change, soluble protein after heating vs DMSO (PISA); higher = thermal stabilisation; K562 lysate, 10 uM; active = over 0.2 and 3.5 SD of the protein, either way, in both replicates (recomputed)
alvocidib = compound: CN1CC[C@H](c2c(O)cc(O)c3c(=O)cc(-c4ccccc4Cl)oc23)[C@H](O)C1 [alvocidib]
Outline: (§1)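 Log-two fold change in thermal stability relative to solvent controls is reported from duplicates. For each sample, crude K562 extract from dounce-homogenised pellets in PBS pH 7.4 with 1 mM MgCl2, at 1 mg/mL protein, was treated with 10 μM compound for 30 min. Aliquots heated for 3 min across 48°C-58°C were pooled, brought to 0.5% NP-40 at 4°C and cleared at 21,000xg for 90 min. The supernatant was quantified by TMTpro 16plex LC-MS/MS with channel sums equalised.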

Tubastatin A = compound: CN1CCc2c(c3ccccc3n2Cc2ccc(C(=O)NO)cc2)C1 [Tubastatin A]
Outline: as §1

[1] = compound: CNC(=O)C1=CC=CC=C1NC2=NC(=NC=C2Cl)NC3=C(C=C(C=C3)N4CCOCC4)OC
Outline: as §1

defactinib = compound: CNC(=O)c1ccc(Nc2ncc(C(F)(F)F)c(NCc3nccnc3N(C)S(C)(=O)=O)n2)cc1 [defactinib]
Outline: as §1

[2] = compound: CNc1nc(-c2ccc3c(N)n[nH]c3c2)cc(N2C[C@@H](C(=O)NC3CCCCC3)CC[C@H]2C)n1
Outline: as §1

encorafenib = compound: COC(=O)N[C@@H](C)CNc1nccc(-c2cn(C(C)C)nc2-c2cc(Cl)cc(NS(C)(=O)=O)c2F)n1 [encorafenib]
Outline: as §1

[3] = compound: COC(=O)[C@H](CCSC)NC(=O)C1=C(C=C(C=C1)NC[C@H](CS)N)C2=CC=CC=C2
Outline: as §1

alisertib = compound: COc1cc(Nc2ncc3c(n2)-c2ccc(Cl)cc2C(c2c(F)cccc2OC)=NC3)ccc1C(=O)O [alisertib]
Outline: as §1

[4] = compound: COc1cc2nc(-c3cc(F)ccc3O)nc(N[C@@H]3CNC[C@H]3C(C)(C)O)c2cc1OC
Outline: as §1

gefitinib = compound: COc1cc2ncnc(Nc3ccc(F)c(Cl)c3)c2cc1OCCCN1CCOCC1 [gefitinib]
Outline: as §1

lapatinib = compound: CS(=O)(=O)CCNCc1ccc(-c2ccc3ncnc(Nc4ccc(OCc5cccc(F)c5)c(Cl)c4)c3c2)o1 [lapatinib]
Outline: as §1

pictilisib = compound: CS(=O)(=O)N1CCN(Cc2cc3nc(-c4cccc5[nH]ncc45)nc(N4CCOCC4)c3s2)CC1 [pictilisib]
Outline: as §1

crizotinib = compound: C[C@@H](Oc1cc(-c2cnn(C3CCNCC3)c2)cnc1N)c1c(Cl)ccc(F)c1Cl [crizotinib]
Outline: as §1

[5] = compound: C[C@H](C1=CC=C(C=C1)C(=O)NC2=C3C=CNC3=NC=C2)N
Outline: as §1

duvelisib = compound: C[C@H](Nc1ncnc2nc[nH]c12)c1cc2cccc(Cl)c2c(=O)n1-c1ccccc1 [duvelisib]
Outline: as §1

gandotinib = compound: Cc1cc(Nc2cc(CN3CCOCC3)c3nc(C)c(Cc4ccc(Cl)cc4F)n3n2)n[nH]1 [gandotinib]
Outline: as §1

tozasertib = compound: Cc1cc(Nc2cc(N3CCN(C)CC3)nc(Sc3ccc(NC(=O)C4CC4)cc3)n2)n[nH]1 [tozasertib]
Outline: as §1

doramapimod = compound: Cc1ccc(-n2nc(C(C)(C)C)cc2NC(=O)Nc2ccc(OCCN3CCOCC3)c3ccccc23)cc1 [doramapimod]
Outline: as §1

bafetinib = compound: Cc1ccc(NC(=O)c2ccc(CN3CC[C@H](N(C)C)C3)c(C(F)(F)F)c2)cc1Nc1nccc(-c2cncnc2)n1 [bafetinib]
Outline: as §1

[6] = compound: Cc1cccc(CC(=O)N2CCc3c2ccc(-c2cn(C)c4ncnc(N)c24)c3F)n1
Outline: as §1

Measured: log2 fold change

SYF2 (UniProt O95926)
inactive: alvocidib 0.004 | Tubastatin A 0.039 | [1] 0.103 | defactinib -0.034 | [2] 0.049 | encorafenib 0.038 | [3] 0.033 | alisertib 0.018 | [4] 0.058 | gefitinib 0.038 | lapatinib 0.026 | pictilisib 0.003 | crizotinib -0.008 | [5] -0.023 | duvelisib -0.144 | gandotinib 0.055 | tozasertib -0.066 | doramapimod 0.04 | bafetinib -0.026 | [6] -0.016

STMN4 isoform 2 (UniProt Q9H169)
inactive: alvocidib -0.002 | Tubastatin A 0.016 | [1] -0.078 | defactinib 0.024 | [2] -0.108 | encorafenib -0.059 | [3] -0.074 | alisertib -0.027 | [4] -0.047 | gefitinib 0.017 | lapatinib -0.085 | pictilisib 0.015 | crizotinib 0.15 | [5] -0.004 | duvelisib 0.021 | gandotinib -0.057 | tozasertib -0.014 | doramapimod 0 | bafetinib -0.052 | [6] -0.056

TAB2 (UniProt Q9NYJ8)
inactive: alvocidib -0.039 | Tubastatin A -0.026 | [1] -0.003 | defactinib 0.023 | [2] 0.011 | encorafenib -0.016 | [3] 0 | alisertib 0.01 | [4] -0.045 | gefitinib 0.093 | lapatinib 0.02 | pictilisib 0.027 | crizotinib -0.077 | [5] 0.098 | duvelisib -0.014 | gandotinib 0.002 | tozasertib -0.019 | doramapimod -0.069 | bafetinib -0.002 | [6] 0.093

SUGP2 (UniProt Q8IX01)
inactive: alvocidib 0.025 | Tubastatin A -0.221 | [1] 0.008 | defactinib -0.104 | [2] 0.041 | encorafenib -0.061 | [3] 0.07 | alisertib 0.004 | [4] 0.034 | gefitinib -0.016 | lapatinib 0 | pictilisib -0.028 | crizotinib -0.01 | [5] -0.056 | duvelisib -0.005 | gandotinib -0.019 | tozasertib 0.001 | doramapimod -0.134 | bafetinib -0.167 | [6] 0.089

STX3 (UniProt Q13277)
inactive: alvocidib 0.006 | Tubastatin A 0.023 | [1] -0.023 | defactinib 0.026 | [2] -0.055 | encorafenib 0.034 | [3] -0.032 | alisertib -0.05 | [4] -0.015 | gefitinib 0.013 | lapatinib -0.001 | pictilisib -0.012 | crizotinib 0.123 | [5] 0.115 | duvelisib 0.055 | gandotinib -0.002 | tozasertib 0.048 | doramapimod -0.06 | bafetinib 0.041 | [6] -0.026

STXBP5 (UniProt Q5T5C0)
inactive: alvocidib -0.003 | Tubastatin A 0.037 | [1] 0.053 | defactinib -0.011 | [2] 0.057 | encorafenib 0.005 | [3] 0.019 | alisertib -0.029 | [4] 0.02 | gefitinib -0.037 | lapatinib -0.008 | pictilisib -0.01 | crizotinib -0.009 | [5] -0.05 | duvelisib -0.017 | gandotinib 0.065 | tozasertib -0.016 | doramapimod 0.056 | bafetinib -0.013 | [6] -0.008

TACO1 (UniProt Q9BSH4)
inactive: alvocidib 0.009 | Tubastatin A -0.015 | [1] 0.028 | defactinib -0.009 | [2] 0.058 | encorafenib 0.031 | [3] -0.008 | alisertib 0.043 | [4] -0.062 | gefitinib -0.007 | lapatinib -0.022 | pictilisib -0.027 | crizotinib 0.039 | [5] -0.113 | duvelisib 0.024 | gandotinib 0.042 | tozasertib 0.033 | doramapimod -0.099 | bafetinib -0.054 | [6] 0.05

SYMPK (UniProt Q92797)
inactive: alvocidib 0.006 | Tubastatin A -0.042 | [1] 0.019 | defactinib -0.004 | [2] 0.004 | encorafenib 0.014 | [3] 0.151 | alisertib -0.007 | [4] 0.004 | gefitinib -0.012 | lapatinib -0.029 | pictilisib -0.064 | crizotinib -0.03 | [5] 0.006 | duvelisib -0.011 | gandotinib -0.124 | tozasertib 0 | doramapimod -0.007 | bafetinib -0.053 | [6] 0.029

SURF1 (UniProt Q15526)
inactive: alvocidib -0.024 | Tubastatin A -0.032 | [1] 0.036 | defactinib 0.038 | [2] -0.086 | encorafenib 0.047 | [3] 0.062 | alisertib -0.196 | [4] -0.077 | gefitinib 0.005 | lapatinib -0.099 | pictilisib -0.035 | crizotinib -0.077 | [5] 0.085 | duvelisib -0.001 | gandotinib 0.094 | tozasertib 0.014 | doramapimod -0.02 | bafetinib -0.015 | [6] 0.015

SYNRG (UniProt Q9UMZ2)
inactive: alvocidib 0.026 | Tubastatin A -0.016 | [1] -0.021 | defactinib 0.015 | [2] 0.002 | encorafenib -0.004 | [3] 0.024 | alisertib 0.033 | [4] 0.003 | gefitinib -0.006 | lapatinib 0.022 | pictilisib -0.016 | crizotinib 0.016 | [5] 0.043 | duvelisib -0.041 | gandotinib -0.037 | tozasertib 0.024 | doramapimod -0.023 | bafetinib -0.032 | [6] -0.044

SYNCRIP (UniProt O60506)
inactive: alvocidib 0.036 | Tubastatin A -0.027 | [1] 0.007 | defactinib 0.01 | [2] 0.027 | encorafenib -0.002 | [3] 0.042 | alisertib 0.022 | [4] -0.002 | gefitinib 0.014 | lapatinib -0.007 | pictilisib 0.007 | crizotinib 0.036 | [5] 0.035 | duvelisib 0.013 | gandotinib -0.033 | tozasertib -0.012 | doramapimod -0.028 | bafetinib -0.008 | [6] -0.02

STK24 (UniProt B4DR80)
inactive: alvocidib -0.029 | Tubastatin A 0.02 | [1] -0.022 | defactinib 0.11 | [2] -0.008 | encorafenib -0.012 | [3] -0.039 | alisertib -0.037 | [4] 0.078 | gefitinib -0.052 | lapatinib 0.006 | pictilisib 0 | crizotinib 0.044 | [5] 0.034 | duvelisib -0.016 | gandotinib 0.089 | tozasertib 0.001 | doramapimod -0.054 | bafetinib 0.004 | [6] 0

STMN2 isoform 2 (UniProt Q93045)
inactive: alvocidib 0.091 | Tubastatin A 0.103 | [1] -0.046 | defactinib -0.074 | [2] 0.047 | encorafenib -0.038 | [3] -0.007 | alisertib -0.002 | [4] -0.014 | gefitinib -0.103 | lapatinib -0.07 | pictilisib 0.026 | crizotinib 0.094 | [5] 0.025 | duvelisib -0.008 | gandotinib -0.034 | tozasertib 0.012 | doramapimod -0.069 | bafetinib 0.058 | [6] -0.139

SZRD1 (UniProt Q7Z422)
inactive: alvocidib -0.049 | Tubastatin A 0.046 | [1] 0.02 | defactinib -0.007 | [2] 0.055 | encorafenib -0.024 | [3] -0.034 | alisertib 0.002 | [4] 0.004 | gefitinib -0.003 | lapatinib -0.004 | pictilisib -0.012 | crizotinib 0.006 | [5] -0.062 | duvelisib -0.098 | gandotinib 0.054 | tozasertib 0.017 | doramapimod 0.005 | bafetinib 0.013 | [6] 0.015

SUOX (UniProt P51687)
inactive: alvocidib -0.038 | Tubastatin A 0.038 | [1] -0.06 | defactinib -0.037 | [2] -0.056 | encorafenib 0.075 | [3] 0.011 | alisertib -0.016 | [4] 0.042 | gefitinib 0.041 | lapatinib -0.011 | pictilisib -0.009 | crizotinib 0 | [5] -0.013 | duvelisib -0.003 | gandotinib 0 | tozasertib 0.07 | doramapimod 0.006 | bafetinib 0.029 | [6] 0.008

STX16 isoform 2 (UniProt O14662)
inactive: alvocidib -0.034 | Tubastatin A 0.081 | [1] -0.035 | defactinib 0.101 | [2] 0.034 | encorafenib -0.015 | [3] -0.107 | alisertib 0.063 | [4] 0.003 | gefitinib -0.088 | lapatinib 0.005 | pictilisib -0.036 | crizotinib 0.018 | [5] 0.021 | duvelisib 0.003 | gandotinib 0.002 | tozasertib 0.023 | doramapimod 0.039 | bafetinib -0.027 | [6] 0.026

Reprinted from the results shown (four entries):
SYNRG (UniProt Q9UMZ2)
inactive: alvocidib 0.026 | Tubastatin A -0.016 | [1] -0.021 | defactinib 0.015 | [2] 0.002 | encorafenib -0.004 | [3] 0.024 | alisertib 0.033 | [4] 0.003 | gefitinib -0.006 | lapatinib 0.022 | pictilisib -0.016 | crizotinib 0.016 | [5] 0.043 | duvelisib -0.041 | gandotinib -0.037 | tozasertib 0.024 | doramapimod -0.023 | bafetinib -0.032 | [6] -0.044

SYNCRIP (UniProt O60506)
inactive: alvocidib 0.036 | Tubastatin A -0.027 | [1] 0.007 | defactinib 0.01 | [2] 0.027 | encorafenib -0.002 | [3] 0.042 | alisertib 0.022 | [4] -0.002 | gefitinib 0.014 | lapatinib -0.007 | pictilisib 0.007 | crizotinib 0.036 | [5] 0.035 | duvelisib 0.013 | gandotinib -0.033 | tozasertib -0.012 | doramapimod -0.028 | bafetinib -0.008 | [6] -0.02

STK24 (UniProt B4DR80)
inactive: alvocidib -0.029 | Tubastatin A 0.02 | [1] -0.022 | defactinib 0.11 | [2] -0.008 | encorafenib -0.012 | [3] -0.039 | alisertib -0.037 | [4] 0.078 | gefitinib -0.052 | lapatinib 0.006 | pictilisib 0 | crizotinib 0.044 | [5] 0.034 | duvelisib -0.016 | gandotinib 0.089 | tozasertib 0.001 | doramapimod -0.054 | bafetinib 0.004 | [6] 0

STMN2 isoform 2 (UniProt Q93045)
inactive: alvocidib 0.091 | Tubastatin A 0.103 | [1] -0.046 | defactinib -0.074 | [2] 0.047 | encorafenib -0.038 | [3] -0.007 | alisertib -0.002 | [4] -0.014 | gefitinib -0.103 | lapatinib -0.07 | pictilisib 0.026 | crizotinib 0.094 | [5] 0.025 | duvelisib -0.008 | gandotinib -0.034 | tozasertib 0.012 | doramapimod -0.069 | bafetinib 0.058 | [6] -0.139
